Test results reported in publication PMC4048286.
No constants are given. Whether binding was seen depends on the method and setting. In cells and extracts the contact can be indirect. Some binding calls cover weakened binding; strength is not graded here. Tags and fused reporters may be left off the sequences shown.

T1: NcsA with a C-terminal StrepII-tag (Hfx. volcanii HVO_0580, Tuc1/Ncs6 homolog) (Haloferax volcanii) (UniProt D4GSH6)
T1 sequence: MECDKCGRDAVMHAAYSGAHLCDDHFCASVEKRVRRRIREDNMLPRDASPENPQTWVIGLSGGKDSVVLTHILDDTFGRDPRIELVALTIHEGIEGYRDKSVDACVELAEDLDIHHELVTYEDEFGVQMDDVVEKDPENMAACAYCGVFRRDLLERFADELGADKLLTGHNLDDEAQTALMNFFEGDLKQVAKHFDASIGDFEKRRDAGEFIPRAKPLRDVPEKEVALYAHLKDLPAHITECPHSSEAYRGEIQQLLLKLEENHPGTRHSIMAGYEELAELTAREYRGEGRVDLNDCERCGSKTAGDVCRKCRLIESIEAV

B1: N-terminal Flag-tagged SAMP1 (small archaeal modifier protein 1) (protein, UniProt D4GUF6 1-87)
chain: MEWKLFADLAEVAGSRTVRVDVDGDATVGDALDALVGAHPALESRVFGDDGELYDHINVLRNGEAAALGEATAAGDELALFPPVSGG
B2: Proteasome-activating nucleotidase A/1 (PAN-A/1) (protein, UniProt D4GUJ7 1-406)
chain: MMTDTVDDVDLPYDKDSASQQEKITALQERLEVLETQNEEMRDKLLDTNAENNKYQQKLERLTHENKKLKQSPLFVATVQEITDEGVIIKQHGNNQEALTEVTDEMREELEPDARVAVNNSLSIVKRLDKETDVRARVMQVEHSPDVTYEDIGGLEEQMQEVRETVEMPLDRPEMFAEVGIDPPSGVLLYGPPGTGKTMLAKAVANQTNASFIKMAGSELVHKFIGEGAKLVRDLFEVARENEPAVIFIDEIDAIASKRTDSKTSGDAEVQRTMMQLLAEMDGFDERGNIRIIAATNRFDMLDPAILRPGRFDRLIEVPKPNEDGREIIFQIHTRKMNVSDDVDFVELAEMADNASGADIKAVCTEAGMFAIRDDRTEIFMQDFVDAWEKIQQEASDETEVSRAFA
B3: UbaA (ubiquitin-activating E1 enzyme homolog of archaea) (enzyme, UniProt D4GSF3 1-270)
chain: MTLSLDATQLDRYSRHIIMDEVGPEGQGRLLSSRVVVVGAGGLGAPAIQYLAAVGVGELVVVDDDVVERSNLQRQVVHCDDDVGTPKAESAAAFVRGLNPDVSVEPVEARVDKSNVHEVVAGSDVVVDASDNFPTRYLLNDVCRFEGIPLVHGAIYKFEGQATTLVPDGPCYRCLFPEAPEPGTVPDCATTGVLGVLPGTVGCIQATEAMKLLLDEGEALDGRLLFYDAMDMTFETVPYRTNPDCPVCGEGGVDSIEDIDYVESCAISLD
B4: N-terminal Flag-tagged SAMP2 (small archaeal modifier protein 2) (protein, UniProt D4GZE7 1-66)
chain: MNVTVEVVGEETSEVAVDDDGTYADLVRAVDLSPHEVTVLVDGRPVPEDQSVEVDRVKVLRLIKGG

target: T1, NcsA with a C-terminal StrepII-tag (Hfx. volcanii HVO_0580, Tuc1/Ncs6 homolog) (Haloferax volcanii); assay: pull-down; NcsA-StrepII held on Strep-Tactin from soluble extract of Hfx. volcanii strains (ΔncsA, H26, ΔubaA), Tris-salt buffer (20 mM Tris, 2 M NaCl, pH 8.0), eluted with 2.5 mM D-desthiobiotin; fractions analysed by reducing SDS-PAGE and immunoblot (α-Flag, α-StrepII, α-UbaA, α-PAN-A/1) or Coomassie stain; 1 L or 50 ml cultures

binding	Binder
no binding	B1
binds	B2
binds	B3
binds	B4
